Data published in patent US10247722B2, “Use of compounds inhibiting apelin / APJ / GP130 signaling for treating cancer” (Centre National de la Recherche Scientifique (CNRS), priority 2014, dated 2019).
At least one structure is not confirmed: it was looked up by name or label, or the drawing left a doubt.

Test system: patient-derived GSCs
Experiment: Secondary neurosphere/tumoursphere formation, Sox2/Nestin expression and trypan blue viability of GSCs
Format: cell-based, human
Settings: pharmacological blocking of mTor (not shown)
Procedure: FIG. 9. […] GSCs were pre-treated with APJ antagonist (MM54, 2 μmol·l^1) 45 min prior EC-CM or Apelin (Apin, 1 μmol·l^−1, 7 min) and protein lysates were analysed by western-blots with the indicated antibodies. Controls include GSC grown in complete (NS) and mitogen-free media (MF). b. STAT3 reporter activity was measured in mock, APJ, Gp130 and APJ+Gp130-transfected HEK-293T and exposed for 6 h to MF and Apin, together with either DMSO or MM54. c. GSCs were exposed to NS, EC-CM and Apin in the presence of DMSO or MM54. Tumoursphere formation per field of view (TS/FOV) was also quantified. d. […] Tumour volume was measured weekly for 7 weeks. e. Frozen sections from GSC-xenografted tumours treated either with vehicle or MM54 were stained for blood vessels (PECAM), together with either Ki67 (proliferation marker or Nestin and nuclei. Percentage of dead cells was estimated by TUNEL. Quantification of both staining is shown. Data represent mean+sem on n=3 experiments. Two-way ANOVA: *P<0.05; **P<0.01.
FIG. 11. […] Apelin secretion was measured by EIA in positive templates (C+), mitogen-free media (MF), human brain endothelial cell (EC) and GSC conditioned media (CM). […] Quantification of tumourspheres per field of view (TS/FOV) (c) and trypan blue exclusion quantification (Viable cells %) (d) was performed. e. […]

CO[C@H]1C[C@@H]2CC[C@@H](C)[C@@](O)(O2)C(=O)C(=O)N2CCCC[C@H]2C(=O)O[C@H]([C@H](C)C[C@@H]2CC[C@@H](O)[C@H](OC)C2)CC(=O)[C@H](C)/C=C(\C)[C@@H](O)[C@@H](OC)C(=O)[C@H](C)C[C@H](C)/C=C/C=C/C=C/1C [rapamycin]
Apelin protective effects on GSCs: jeopardized
